Data from PMC13221179.
Where two headings read alike, the source gives them in different places. Results are given in words; binding and its absence hold for the method and conditions named. Binding seen in cells or lysates may run through a third protein. Some entries that bind do so weakly or less than the wild type.

Experiments:
Experiment in all cases: co-IP
[1] = target: Flag-tagged E3 ubiquitin protein ligase Itchy homolog (ITCH) (human) (UniProt Q96J02)
[2] = target: Flag-tagged SARS-CoV-2 membrane protein M (SARS-CoV-2) (UniProt P0DTC5)
[3] = target: Flag-tagged SARS-CoV-2 envelope protein E (SARS-CoV-2) (UniProt P0DTC4)
[4] = target: Flag-tagged SARS-CoV-2 membrane protein M (SARS-CoV-2) (UniProt P0DTC5); remark: listed apart in the source

Molecule: s-tag-fused SARS-CoV-2 envelope protein E (from UniProt P0DTC4 1-75)
- binding [1]: binds
- binding [2]: binds

Molecule: s-tag-fused SARS-CoV-2 membrane protein M (from UniProt P0DTC5 1-222)
- binding [1]: binds
- binding [3]: binds

Molecule: RTN3, endogenous in HEK293 cells (from UniProt O95197 1-1032)
- binding [2]: binds

B1: NDP52, endogenous in HEK293 cells (protein, UniProt Q13137 1-446)
chain: MEETIKDPPTSAVLLDHCHFSQVIFNSVEKFYIPGGDVTCHYTFTQHFIPRRKDWIGIFRVGWKTTREYYTFMWVTLPIDLNNKSAKQQEVQFKAYYLPKDDEYYQFCYVDEDGVVRGASIPFQFRPENEEDILVVTTQGEVEEIEQHNKELCKENQELKDSCISLQKQNSDMQAELQKKQEELETLQSINKKLELKVKEQKDYWETELLQLKEQNQKMSSENEKMGIRVDQLQAQLSTQEKEMEKLVQGDQDKTEQLEQLKKENDHLFLSLTEQRKDQKKLEQTVEQMKQNETTAMKKQQELMDENFDLSKRLSENEIICNALQRQKERLEGENDLLKRENSRLLSYMGLDFNSLPYQVPTSDEGGARQNPGLAYGNPYSGIQESSSPSPLSIKKCPICKADDICDHTLEQQQMQPLCFNCPICDKIFPATEKQIFEDHVFCHSL
- binding [4]: binds
